Results reported in patent publication US5225528A (priority 1990, dated 1993).
HELM strings list residues between dots; [ac] is acetyl, [am] amide, other brackets name non-standard units.

Test: general procedure: Boc solid-phase peptide synthesis; Boc-L-Pro-O-(PAM)-resin; chloromethylated resin (Merrifield resin); BOP reagent/DIEA for some couplings; acid chloride coupling
Details: for isolated mass: scale 1 mmole
[1] = whole synthesis, HPLC (Method G), scale of the general procedure 1 mmole
[2] = whole synthesis, scale of the general procedure 1 mmole
[3] = late stage modification step, HPLC (Method G)
[4] = late stage modification step, HPLC (Method G), head-to-tail ring
[5] = late stage modification step, 210 nM

For “Cyclo[D-Phe-L-Ile-D-Pip-L-Pro-D-(N^α Me)Phe-L-Pro]”, the “final HPLC purity” value [1] was 98%, the isolated mass (whole synthesis) was 382 mg and the isolated yield [2] was 39%.

In the case of “Cyclo[D-Phe-L-Ile-D-Pip-L-Pip-D-Trp-L-Pro]”, the “final HPLC purity” value [1] is reported as 99%.

For “c-[D-Phenylalanyl-L-isoleucyl-D-pipecolyl-N^β -(imidazolylethyl)-L-asparagyl-N-methyl-D-phenylalanyl-L-prolyl]”, the “final HPLC purity” value [3] was 99.4% pure.

For “PEPTIDE1{[dF].I.[dP].[L-Pip].[D-NMePhe].P}$PEPTIDE1,PEPTIDE1,1:R1-6:R2$$$V2.0”, the “final HPLC purity” value [1] was 98.4% pure.

With “c-[D-Phenylalanyl-L-isoleucyl-D-phenylglycinyl-L-phenylglycinyl-D-phenylalanyl-L-prolyl]” the “final HPLC purity” value (whole synthesis, 214 nM, scale of the general procedure 1 mmole, head-to-tail ring) was 99%.

With “c-[N-Me-D-Alanyl-L-isoleucyl-D-pipecolyl-L-pipecolyl-N-Me-D-phenylalanyl-L- prolyl]” the “final HPLC purity” value (whole synthesis, 210 nM, scale of the general procedure 1 mmole, head-to-tail ring) was greater than 96.5% pure.

In the case of “c-[D-Tryptophanyl-L-isoleucinyl-D-pipecolyl-D-piperazin-2-yl(4-Cbz)-D-(N^α -methyl)phenylalanyl-L-prolyl]”, the “final HPLC purity” value (whole synthesis, 210 nM) is reported as greater than 98%.

In the case of “Cyclo[D-Phe-L-Ile-D-Pip-L-(3,4-dehydro)-Pip-D-(N^α Me)Phe-L-Pro]”, the “final HPLC purity” value [1] is reported as 99%, the isolated mass (whole synthesis) is reported as 520 mg and the isolated yield [2] is reported as 70%.

For “PEPTIDE1{[dF].I.[D-Pip].[Asn(aminoethyl)].[D-NMePhe].P}$PEPTIDE1,PEPTIDE1,1:R1-6:R2$$$V2.0”, the “final HPLC purity” value [3] was 99%.

For “Cyclo[D-Trp-L-Ile-D-Pip-L-(Cbz)Orn-D-(N^α Me)-Phe-L-Pro]”, the “final HPLC purity” value [1] was 99%, the isolated mass (whole synthesis) was 500 mg and the isolated yield [2] was 54%.

For “Cyclo[D-tryptophanyl-L-isoleucyl-D-pipecolyl-L-pipecolyl-D-[im-(CH3)2 ]^+ histidyl-L-prolyl] trifluoroacetate”, the step yield (late stage modification step) was 42% and the “final HPLC purity” value [3] was 99%.

For “Cyclo[D-Phe-L-Ile-D-Pip-L-Pip-D-(N^α Me)Tyr-L-Pro]”, the “final HPLC purity” value [3] was 97.5%.

For “c-[D-Phenylalanyl-L-isoleucinyl-D-pipecolyl-L-piperazin-2-yl-D-histidinyl(BOM)-L-prolyl]”, the “final HPLC purity” value [4] was greater than 96% pure.

In the case of “c-[D-Tryptophanyl-L-isoleucinyl-D-pipecolyl-L-piperazin-2-yl(4-dibenzylphosphoramidyl)-D-(N^α -Me)phenylalanyl-L-prolyl]”, the “final HPLC purity” value [5] is reported as greater than 96% pure.

For “c-[D-Phenylalany-L-isoleucinyl-D-pipecolyl-L-piperazin-2-yl-D-(N^im methyl)histidinyl-L-prolyl]”, the “final HPLC purity” value [3] was greater than 97% pure.

For “Cyclo[D-Phe-L-Ile-D-(3,4-dehydro)-Pip-L-Pip D-(N^α Me)Phe-L-Pro]”, the “final HPLC purity” value [1] was 98.5%, the isolated mass (whole synthesis) was 320 mg and the isolated yield [2] was 45%.

With “c-[Phenylalanyl-L-isoleucinyl-D-piperazin-2-yl(4-Cbz)-D-piperazin-2-yl(4-Cbz)-D-(N^α -methyl)phenylalanyl-L-prolyl]” the “final HPLC purity” value (whole synthesis, 210 nM, scale of the general procedure 1 mmole) was greater than 99%.

For “Cyclo[D-2-Nal-L-Ile-D-Pip-L-Pip-D-His-L-Pro]”, the “final HPLC purity” value [1] was 99%.

For “Cyclo[D-a-Nal-L-Ile-D-Pip-L-Pip-D-His-L-Pro]”, the “final HPLC purity” value [1] was 99%, the isolated mass (whole synthesis) was 142 mg and the isolated yield [2] was 14%.

For “PEPTIDE1{[dF].I.[D-Orn(Boc)].[L-Pip].[D-NMePhe].P}$PEPTIDE1,PEPTIDE1,1:R1-6:R2$$$V2.0”, the “final HPLC purity” value [1] was 97.0% pure.

For “C-[D-Tryptophanyl-L-isoleucinyl-D-pipecolyl-L-piperazin-2-yl (4-t-butylacetyl)-D-(N^α -Me)phenylalanyl-L-prolyl]”, the “final HPLC purity” value [5] was greater than 98% pure.

With “PEPTIDE1{[dF].I.[D-Pip].[L-Pip].[NMe-D-Phe].[L-Pip]}$PEPTIDE1,PEPTIDE1,1:R1-6:R2$$$V2.0” the “final HPLC purity” value [1] was 98.3% pure.

With “c-[D-(O-Ethyl)-tyrosyl-L-isoleucyl-D-(O-tert-butyl)threonyl-L-asparagyl-D-phenylalanyl-L-prolyl]” the “final HPLC purity” value (whole synthesis, HPLC Method G, scale of the general procedure 1 mmole, head-to-tail ring) was 98.6% pure.

For “c-[D-(O-Ethyl)-tyrosyl-D-isoleucyl-D-glutamyl-L-asparagyl-D-phenylalanyl-L- prolyl]”, the “final HPLC purity” value (cyclisation step, HPLC (Method G), head-to-tail ring) was 94.0% pure.

In the case of “c-[D-2-Napthylalanyl-L-isoleucyl-D-pipecolyl-L-[N-(1-methyl-quinuclidinium- 3-yl-carbonyl)]lysyl-D-(N-methyl)phenylalanyl-L-prolyl]”, the “final HPLC purity” value [4] is reported as 99% and the step yield (late stage modification step, head-to-tail ring) is reported as 48%.

With “c-[D-2-Naphthylalanyl-L-isoleucinyl-D-pipecolyl-L-piperazin-2-yl-D-(N^α -methyl)phenylalanyl-L-prolyl]” the “final HPLC purity” value [3] was greater than 97% pure.

With “Cyclo[D-tryptophanyl-L-isoleucyl-D-pipecolyl-L-pipecolyl-D-(N^α methyl)histidyl-L-prolyl]” the “final HPLC purity” value [1] was 99%, the isolated mass (whole synthesis) was 110 mg and the isolated yield [2] was 12%.
